According to the supplement of paper PMC10077471:
Over roughly 1,900 compounds, “excess over highest single agent (ExcessHSA) synergy score, 6x6 matrix” has its median near -83; the lowest 2% begin near -370. The list shows a part of the results.

Test system: NCI-H446
Experiment: excess over highest single agent (ExcessHSA) synergy score, 6x6 matrix; higher = less synergy (more negative = stronger synergy)
Conditions: 72 h; CellTiter-Glo viability

Structure (SMILES)	excess over highest single agent
COc1cccc(-c2cc(=O)c3ccccc3o2)c1N + Cc1sc2c(c1C)C(c1ccc(Cl)cc1)=N[C@@H](CC(=O)OC(C)(C)C)c1nnc(C)n1-2 [NCGC00250412-19]	-128
CO[C@@H]1[C@H](N(C)C(=O)c2ccccc2)C[C@H]2O[C@]1(C)n1c3ccccc3c3c4c(c5c6ccccc6n2c5c31)C(=O)NC4 + Cc1sc2c(c1C)C(c1ccc(Cl)cc1)=N[C@@H](CC(=O)OC(C)(C)C)c1nnc(C)n1-2 [NCGC00250412-19]	-207
CC(C)(C#N)c1cc(Cn2cncn2)cc(C(C)(C)C#N)c1 + Cc1sc2c(c1C)C(c1ccc(Cl)cc1)=N[C@@H](CC(=O)OC(C)(C)C)c1nnc(C)n1-2 [NCGC00250412-19]	-122
COc1cc2nccc(Oc3ccc(NC(=O)Nc4cc(C)on4)c(Cl)c3)c2cc1OC + Cc1sc2c(c1C)C(c1ccc(Cl)cc1)=N[C@@H](CC(=O)OC(C)(C)C)c1nnc(C)n1-2 [NCGC00250412-19]	-229
C[C@@H](O)[C@H]1C(=O)N2C(C(=O)O)=C(S[C@@H]3CN[C@H](CNS(N)(=O)=O)C3)[C@H](C)[C@H]12 + Cc1sc2c(c1C)C(c1ccc(Cl)cc1)=N[C@@H](CC(=O)OC(C)(C)C)c1nnc(C)n1-2 [NCGC00250412-19]	-23.4
O=C(CCc1ccc(O)cc1)c1c(O)cc(O)cc1O + Cc1sc2c(c1C)C(c1ccc(Cl)cc1)=N[C@@H](CC(=O)OC(C)(C)C)c1nnc(C)n1-2 [NCGC00250412-19]	-121
CC[C@@H](C(N)=O)N1CCCC1=O + Cc1sc2c(c1C)C(c1ccc(Cl)cc1)=N[C@@H](CC(=O)OC(C)(C)C)c1nnc(C)n1-2 [NCGC00250412-19]	-95.6
NC(=O)c1cccc2cn(-c3ccc([C@@H]4CCCNC4)cc3)nc12 + Cc1sc2c(c1C)C(c1ccc(Cl)cc1)=N[C@@H](CC(=O)OC(C)(C)C)c1nnc(C)n1-2 [NCGC00250412-19]	-230
O=C(O)CCCc1ccc(N(CCCl)CCCl)cc1 + Cc1sc2c(c1C)C(c1ccc(Cl)cc1)=N[C@@H](CC(=O)OC(C)(C)C)c1nnc(C)n1-2 [NCGC00250412-19]	-72.8
CC(S)C(=O)NCC(=O)O (stereo unspecified) + Cc1sc2c(c1C)C(c1ccc(Cl)cc1)=N[C@@H](CC(=O)OC(C)(C)C)c1nnc(C)n1-2 [NCGC00250412-19]	-113
CN1CCN(CCCN2c3ccccc3Sc3ccc(C(F)(F)F)cc32)CC1 + Cc1sc2c(c1C)C(c1ccc(Cl)cc1)=N[C@@H](CC(=O)OC(C)(C)C)c1nnc(C)n1-2 [NCGC00250412-19]	100
